# Earlier results as cited in patent US5378848A, “Condensed imidazopyridine derivatives” (Shionogi & Co., Ltd., priority 1992, dated 1995).
# For at least one compound, name, drawing or mass did not settle the structure.
# Test system: memorial and learning behavior
# Settings: M. Sarter et al., TINS 11, 13 (1988); cited from earlier work
structure (smiles),measurement,value
"COC(=O)c1cc2c(cn1)[nH]c1ccccc12 [β-CCM, methyl β-carboline-3-carboxylic acid]",effect on memorial and learning behavior of an animal,can reinforce the memorial and learning behavior of an animal
